# Results are given in words; binding and its absence hold for the method and conditions named. Binding seen in cells or lysates may run through a third protein. Binding calls can cover weak binding; strength is not graded here.
# Amino acid sequences for entries named in this document (tags omitted). A change or cut given only in a name is not applied to a line headed by its entry.
# UniProt Q9UKL3: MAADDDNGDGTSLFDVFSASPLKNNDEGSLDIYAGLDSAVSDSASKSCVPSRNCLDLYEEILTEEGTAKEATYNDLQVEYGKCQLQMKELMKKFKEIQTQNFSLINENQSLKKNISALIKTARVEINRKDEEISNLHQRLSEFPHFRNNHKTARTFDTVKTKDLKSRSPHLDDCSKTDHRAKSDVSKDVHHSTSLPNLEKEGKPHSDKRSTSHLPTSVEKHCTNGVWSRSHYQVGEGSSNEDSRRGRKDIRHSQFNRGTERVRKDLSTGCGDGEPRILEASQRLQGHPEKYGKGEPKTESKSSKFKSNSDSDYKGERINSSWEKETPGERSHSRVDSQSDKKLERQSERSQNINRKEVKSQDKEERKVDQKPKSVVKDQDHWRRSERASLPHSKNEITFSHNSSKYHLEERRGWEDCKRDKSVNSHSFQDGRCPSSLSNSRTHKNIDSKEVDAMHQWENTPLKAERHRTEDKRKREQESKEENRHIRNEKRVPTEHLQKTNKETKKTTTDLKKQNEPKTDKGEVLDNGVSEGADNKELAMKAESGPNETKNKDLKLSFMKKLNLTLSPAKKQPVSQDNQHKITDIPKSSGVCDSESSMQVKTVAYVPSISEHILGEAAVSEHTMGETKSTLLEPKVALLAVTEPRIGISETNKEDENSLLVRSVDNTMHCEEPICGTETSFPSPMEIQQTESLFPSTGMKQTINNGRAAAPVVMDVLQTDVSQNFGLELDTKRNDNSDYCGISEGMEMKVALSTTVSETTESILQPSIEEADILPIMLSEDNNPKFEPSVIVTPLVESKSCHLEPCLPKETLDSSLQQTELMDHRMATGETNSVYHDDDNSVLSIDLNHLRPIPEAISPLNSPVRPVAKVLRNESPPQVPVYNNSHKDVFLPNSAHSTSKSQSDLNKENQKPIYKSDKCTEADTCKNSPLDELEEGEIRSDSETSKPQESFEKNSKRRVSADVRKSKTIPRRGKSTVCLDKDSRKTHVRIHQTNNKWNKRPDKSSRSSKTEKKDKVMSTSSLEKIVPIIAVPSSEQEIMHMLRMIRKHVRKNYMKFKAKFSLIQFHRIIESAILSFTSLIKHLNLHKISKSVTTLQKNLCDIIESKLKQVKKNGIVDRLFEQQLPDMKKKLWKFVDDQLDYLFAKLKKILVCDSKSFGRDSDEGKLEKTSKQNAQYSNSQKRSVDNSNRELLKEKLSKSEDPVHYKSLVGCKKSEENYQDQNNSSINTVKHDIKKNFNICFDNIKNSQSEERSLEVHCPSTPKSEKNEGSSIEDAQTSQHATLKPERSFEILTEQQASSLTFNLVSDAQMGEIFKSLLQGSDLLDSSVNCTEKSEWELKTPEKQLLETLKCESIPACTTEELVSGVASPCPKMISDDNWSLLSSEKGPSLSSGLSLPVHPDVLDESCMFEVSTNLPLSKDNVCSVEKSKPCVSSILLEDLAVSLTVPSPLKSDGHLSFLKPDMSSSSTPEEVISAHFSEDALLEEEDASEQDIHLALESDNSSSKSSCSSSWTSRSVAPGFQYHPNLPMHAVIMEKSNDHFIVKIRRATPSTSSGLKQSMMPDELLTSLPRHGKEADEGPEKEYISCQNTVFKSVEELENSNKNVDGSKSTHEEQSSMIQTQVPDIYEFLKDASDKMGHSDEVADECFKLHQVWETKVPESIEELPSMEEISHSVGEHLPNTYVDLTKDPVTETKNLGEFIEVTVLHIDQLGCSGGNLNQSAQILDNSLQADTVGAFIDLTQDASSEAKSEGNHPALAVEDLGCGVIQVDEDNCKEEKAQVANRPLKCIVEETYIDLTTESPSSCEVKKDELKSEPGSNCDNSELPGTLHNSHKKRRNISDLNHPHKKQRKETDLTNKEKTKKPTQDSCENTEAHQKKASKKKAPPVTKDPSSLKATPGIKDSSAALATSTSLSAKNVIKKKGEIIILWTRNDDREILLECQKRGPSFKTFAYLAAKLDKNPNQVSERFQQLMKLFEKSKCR
# Legend:
# [1] = target: GST fusion of the SANT/Myb domain of YARP (61 amino acids) (human); test: pull-down; GST fusions limited to the SANT/Myb domain of FLASH (60 aa) or YARP (61 aa) incubated with 35S-labelled in vitro translated NPAT (last 131 amino acids), glutathione beads, radiography; KCl not stated for this set; 600 mM KCl also tested (NPAT-YARP stabilized, NPAT-FLASH weakened); only the target purified
# [2] = target: GST fusion of the SANT/Myb domain of FLASH (60 amino acids) (human) (UniProt Q9UKL3); test: as above
Binder,binding [1],binding [2]
"NPAT, the last 131 amino acids, H1424A (domain or fragment, UniProt Q14207 1297-1427, 35S label) EDSSTSKVMVPPVTPDLPACSPASETGSENSVNMAAHTLMILSRAAISRTTSATPLKDNTQQFRASSRSTTKKRKIEELDERERNSRPSSKNLTNSSIPMKKKKIKKKKLPSSFPAGMDVDKFLLSLAYDE",binds,binds
"NPAT, the last 131 amino acids, F1410A (domain or fragment, UniProt Q14207 1297-1427, 35S label) EDSSTSKVMVPPVTPDLPACSPASETGSENSVNMAAHTLMILSRAAISRTTSATPLKDNTQQFRASSRSTTKKRKIEELDERERNSRPSSKNLTNSSIPMKKKKIKKKKLPSSAPAGMDVDKFLLSLHYDE",binds,binds
"NPAT, the last 131 amino acids, F1419A (domain or fragment, UniProt Q14207 1297-1427, 35S label) EDSSTSKVMVPPVTPDLPACSPASETGSENSVNMAAHTLMILSRAAISRTTSATPLKDNTQQFRASSRSTTKKRKIEELDERERNSRPSSKNLTNSSIPMKKKKIKKKKLPSSFPAGMDVDKALLSLHYDE",binds,binds

# More lines, now with the values ahead:
binding [1],binding [2],Binder
binds,binds,"NPAT, the last 131 amino acids, wild type (domain or fragment, UniProt Q14207 1297-1427, 35S label) EDSSTSKVMVPPVTPDLPACSPASETGSENSVNMAAHTLMILSRAAISRTTSATPLKDNTQQFRASSRSTTKKRKIEELDERERNSRPSSKNLTNSSIPMKKKKIKKKKLPSSFPAGMDVDKFLLSLHYDE"
binds weakly,binds,"NPAT, the last 131 amino acids, L1423A (domain or fragment, UniProt Q14207 1297-1427, 35S label) EDSSTSKVMVPPVTPDLPACSPASETGSENSVNMAAHTLMILSRAAISRTTSATPLKDNTQQFRASSRSTTKKRKIEELDERERNSRPSSKNLTNSSIPMKKKKIKKKKLPSSFPAGMDVDKFLLSAHYDE"
binds weakly,binds,"NPAT, the last 131 amino acids, L1420A (domain or fragment, UniProt Q14207 1297-1427, 35S label) EDSSTSKVMVPPVTPDLPACSPASETGSENSVNMAAHTLMILSRAAISRTTSATPLKDNTQQFRASSRSTTKKRKIEELDERERNSRPSSKNLTNSSIPMKKKKIKKKKLPSSFPAGMDVDKFALSLHYDE"
binds,binds,"NPAT, the last 131 amino acids, Y1425A (domain or fragment, UniProt Q14207 1297-1427, 35S label) EDSSTSKVMVPPVTPDLPACSPASETGSENSVNMAAHTLMILSRAAISRTTSATPLKDNTQQFRASSRSTTKKRKIEELDERERNSRPSSKNLTNSSIPMKKKKIKKKKLPSSFPAGMDVDKFLLSLHADE"
binds,binds,"NPAT, the last 131 amino acids, with the two acidic residues at the C-terminus deleted (ΔDE) (domain or fragment, UniProt Q14207 1297-1425, 35S label) EDSSTSKVMVPPVTPDLPACSPASETGSENSVNMAAHTLMILSRAAISRTTSATPLKDNTQQFRASSRSTTKKRKIEELDERERNSRPSSKNLTNSSIPMKKKKIKKKKLPSSFPAGMDVDKFLLSLHY"
